The source of these data is the supplement of paper PMC12819154, “High-throughput peptide-centric local stability assay extends protein–ligand identification to membrane proteins, tissues and bacteria” (Nature Structural & Molecular Biology, 2025).

Chains of the proteins cited; added tags and fusions are not shown. Lines headed by an entry give the natural chain unless they say otherwise; changes in a name come on top.
UniProt Q8VEJ9: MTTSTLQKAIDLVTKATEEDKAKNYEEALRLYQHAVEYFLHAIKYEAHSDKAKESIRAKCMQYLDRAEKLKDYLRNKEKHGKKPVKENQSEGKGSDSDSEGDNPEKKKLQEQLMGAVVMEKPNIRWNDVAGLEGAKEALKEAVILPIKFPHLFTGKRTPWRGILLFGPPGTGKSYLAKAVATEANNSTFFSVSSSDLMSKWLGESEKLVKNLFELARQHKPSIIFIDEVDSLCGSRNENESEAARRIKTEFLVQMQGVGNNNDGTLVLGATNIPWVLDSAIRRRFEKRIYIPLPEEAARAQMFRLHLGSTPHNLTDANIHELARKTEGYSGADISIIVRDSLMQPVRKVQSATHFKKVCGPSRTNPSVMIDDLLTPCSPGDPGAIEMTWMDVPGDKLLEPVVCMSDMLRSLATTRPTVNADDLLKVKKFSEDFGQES
UniProt Q8R3Y5: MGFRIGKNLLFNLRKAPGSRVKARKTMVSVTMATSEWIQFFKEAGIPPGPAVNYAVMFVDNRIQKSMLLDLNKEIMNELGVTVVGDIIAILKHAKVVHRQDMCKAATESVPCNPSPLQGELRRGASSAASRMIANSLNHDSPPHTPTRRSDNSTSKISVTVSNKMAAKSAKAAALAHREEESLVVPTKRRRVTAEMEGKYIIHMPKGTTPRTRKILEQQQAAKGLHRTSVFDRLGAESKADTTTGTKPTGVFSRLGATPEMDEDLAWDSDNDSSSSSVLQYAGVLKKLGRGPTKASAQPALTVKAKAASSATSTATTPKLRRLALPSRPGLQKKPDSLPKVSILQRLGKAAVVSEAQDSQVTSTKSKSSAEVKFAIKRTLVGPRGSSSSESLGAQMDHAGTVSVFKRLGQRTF
UniProt Q8R5K4: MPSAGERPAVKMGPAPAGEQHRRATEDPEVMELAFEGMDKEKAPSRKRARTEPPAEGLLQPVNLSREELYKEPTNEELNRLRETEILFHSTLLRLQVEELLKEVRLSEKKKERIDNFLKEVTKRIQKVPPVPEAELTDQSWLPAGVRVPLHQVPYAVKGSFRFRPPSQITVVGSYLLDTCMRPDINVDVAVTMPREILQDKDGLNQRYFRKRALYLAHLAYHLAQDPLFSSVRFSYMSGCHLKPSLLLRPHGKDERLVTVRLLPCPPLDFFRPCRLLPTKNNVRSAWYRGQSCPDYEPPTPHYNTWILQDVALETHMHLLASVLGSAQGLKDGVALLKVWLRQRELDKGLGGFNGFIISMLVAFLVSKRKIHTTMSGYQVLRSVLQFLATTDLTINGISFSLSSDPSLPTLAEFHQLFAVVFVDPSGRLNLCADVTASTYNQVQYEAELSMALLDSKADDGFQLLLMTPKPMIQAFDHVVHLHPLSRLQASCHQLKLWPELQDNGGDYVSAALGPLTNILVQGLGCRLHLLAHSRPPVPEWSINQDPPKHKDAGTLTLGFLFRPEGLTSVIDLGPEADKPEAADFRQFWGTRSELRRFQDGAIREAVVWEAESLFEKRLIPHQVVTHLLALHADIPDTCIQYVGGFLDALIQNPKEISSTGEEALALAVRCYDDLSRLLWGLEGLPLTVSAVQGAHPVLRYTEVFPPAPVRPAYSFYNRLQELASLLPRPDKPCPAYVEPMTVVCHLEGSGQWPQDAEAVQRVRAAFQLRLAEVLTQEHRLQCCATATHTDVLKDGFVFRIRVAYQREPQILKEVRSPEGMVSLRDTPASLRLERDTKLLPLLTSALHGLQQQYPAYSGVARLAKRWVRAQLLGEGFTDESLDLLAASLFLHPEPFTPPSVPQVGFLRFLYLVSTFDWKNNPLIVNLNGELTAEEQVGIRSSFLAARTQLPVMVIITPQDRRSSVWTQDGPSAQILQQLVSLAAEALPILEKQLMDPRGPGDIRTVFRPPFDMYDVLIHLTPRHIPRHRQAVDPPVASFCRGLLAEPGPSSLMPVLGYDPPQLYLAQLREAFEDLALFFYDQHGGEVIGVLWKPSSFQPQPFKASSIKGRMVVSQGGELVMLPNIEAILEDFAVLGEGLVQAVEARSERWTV
UniProt Q8R5J9: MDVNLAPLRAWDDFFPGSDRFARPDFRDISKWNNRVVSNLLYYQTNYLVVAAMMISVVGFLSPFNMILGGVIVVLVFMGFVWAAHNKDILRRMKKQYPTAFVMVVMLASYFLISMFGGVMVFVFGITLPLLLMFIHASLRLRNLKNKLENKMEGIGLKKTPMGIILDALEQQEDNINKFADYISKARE
UniProt Q8VDM1: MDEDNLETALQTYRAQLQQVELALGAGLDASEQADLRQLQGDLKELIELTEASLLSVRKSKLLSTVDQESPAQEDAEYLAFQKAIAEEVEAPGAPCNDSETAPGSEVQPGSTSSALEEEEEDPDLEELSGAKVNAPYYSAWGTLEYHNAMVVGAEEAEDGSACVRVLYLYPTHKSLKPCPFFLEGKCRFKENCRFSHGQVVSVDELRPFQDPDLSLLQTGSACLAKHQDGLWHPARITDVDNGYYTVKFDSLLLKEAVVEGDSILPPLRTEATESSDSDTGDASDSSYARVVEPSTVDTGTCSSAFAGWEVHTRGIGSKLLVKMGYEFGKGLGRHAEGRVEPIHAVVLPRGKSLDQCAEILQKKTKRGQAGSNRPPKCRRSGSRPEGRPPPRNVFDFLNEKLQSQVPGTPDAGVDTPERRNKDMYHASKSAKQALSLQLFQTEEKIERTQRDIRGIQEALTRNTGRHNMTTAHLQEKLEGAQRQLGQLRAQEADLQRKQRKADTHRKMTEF
UniProt Q8VEK3: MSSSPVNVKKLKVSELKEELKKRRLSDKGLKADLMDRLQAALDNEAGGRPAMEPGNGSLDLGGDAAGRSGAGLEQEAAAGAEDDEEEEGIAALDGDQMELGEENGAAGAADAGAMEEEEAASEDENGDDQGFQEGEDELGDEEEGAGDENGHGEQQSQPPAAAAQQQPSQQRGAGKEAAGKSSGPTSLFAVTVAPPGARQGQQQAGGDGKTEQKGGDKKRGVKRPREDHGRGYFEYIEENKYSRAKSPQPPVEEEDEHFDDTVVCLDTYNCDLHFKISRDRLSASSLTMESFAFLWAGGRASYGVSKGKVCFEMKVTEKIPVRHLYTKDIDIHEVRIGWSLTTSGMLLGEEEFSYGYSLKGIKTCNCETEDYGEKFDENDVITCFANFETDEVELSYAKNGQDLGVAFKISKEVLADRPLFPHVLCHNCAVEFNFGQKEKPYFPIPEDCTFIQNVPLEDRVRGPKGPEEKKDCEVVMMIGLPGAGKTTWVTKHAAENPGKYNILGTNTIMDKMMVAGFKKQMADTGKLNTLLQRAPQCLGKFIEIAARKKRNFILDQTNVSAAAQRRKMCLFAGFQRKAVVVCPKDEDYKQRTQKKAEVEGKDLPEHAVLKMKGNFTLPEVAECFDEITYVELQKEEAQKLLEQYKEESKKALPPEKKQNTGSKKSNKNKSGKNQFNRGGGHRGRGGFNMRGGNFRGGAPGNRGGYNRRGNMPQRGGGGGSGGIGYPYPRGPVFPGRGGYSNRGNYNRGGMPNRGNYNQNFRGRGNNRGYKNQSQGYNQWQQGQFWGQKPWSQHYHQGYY
UniProt Q8VDS8: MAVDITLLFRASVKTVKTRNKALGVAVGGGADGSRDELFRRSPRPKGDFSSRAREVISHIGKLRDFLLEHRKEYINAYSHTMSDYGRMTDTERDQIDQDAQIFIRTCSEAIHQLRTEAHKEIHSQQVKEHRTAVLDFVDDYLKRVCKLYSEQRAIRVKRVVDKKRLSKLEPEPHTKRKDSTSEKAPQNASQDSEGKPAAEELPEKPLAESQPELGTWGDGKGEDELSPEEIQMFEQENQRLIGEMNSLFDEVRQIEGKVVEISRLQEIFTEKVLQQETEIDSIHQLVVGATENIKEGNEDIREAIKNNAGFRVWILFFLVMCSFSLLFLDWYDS
UniProt Q8R411: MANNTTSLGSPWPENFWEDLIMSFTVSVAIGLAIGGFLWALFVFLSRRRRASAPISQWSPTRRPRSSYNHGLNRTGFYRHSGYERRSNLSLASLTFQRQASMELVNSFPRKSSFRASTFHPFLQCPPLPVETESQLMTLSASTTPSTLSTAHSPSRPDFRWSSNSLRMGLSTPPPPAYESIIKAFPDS
UniProt Q8VC03: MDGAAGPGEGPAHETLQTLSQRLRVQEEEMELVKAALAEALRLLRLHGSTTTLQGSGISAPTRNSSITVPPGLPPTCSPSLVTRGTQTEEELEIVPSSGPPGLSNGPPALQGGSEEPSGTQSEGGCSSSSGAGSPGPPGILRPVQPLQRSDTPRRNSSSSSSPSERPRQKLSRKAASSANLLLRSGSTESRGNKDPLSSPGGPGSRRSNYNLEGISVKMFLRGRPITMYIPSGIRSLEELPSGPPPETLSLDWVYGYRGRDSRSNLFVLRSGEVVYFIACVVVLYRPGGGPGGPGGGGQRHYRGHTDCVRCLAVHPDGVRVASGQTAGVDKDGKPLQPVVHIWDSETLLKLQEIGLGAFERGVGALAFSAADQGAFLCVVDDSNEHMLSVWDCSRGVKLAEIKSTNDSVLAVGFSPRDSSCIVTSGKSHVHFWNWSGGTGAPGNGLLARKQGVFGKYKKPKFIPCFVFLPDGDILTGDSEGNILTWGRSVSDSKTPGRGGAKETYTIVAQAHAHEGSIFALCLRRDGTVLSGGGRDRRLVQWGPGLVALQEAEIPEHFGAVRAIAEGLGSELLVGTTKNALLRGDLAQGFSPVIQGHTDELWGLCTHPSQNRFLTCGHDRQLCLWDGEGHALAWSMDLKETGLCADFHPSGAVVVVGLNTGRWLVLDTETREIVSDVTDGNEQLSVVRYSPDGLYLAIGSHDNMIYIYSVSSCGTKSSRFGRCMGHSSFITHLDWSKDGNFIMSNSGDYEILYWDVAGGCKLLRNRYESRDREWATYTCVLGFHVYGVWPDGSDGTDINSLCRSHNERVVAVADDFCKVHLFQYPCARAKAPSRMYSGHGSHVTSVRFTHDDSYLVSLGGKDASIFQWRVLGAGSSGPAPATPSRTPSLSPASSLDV
UniProt Q8VBT0: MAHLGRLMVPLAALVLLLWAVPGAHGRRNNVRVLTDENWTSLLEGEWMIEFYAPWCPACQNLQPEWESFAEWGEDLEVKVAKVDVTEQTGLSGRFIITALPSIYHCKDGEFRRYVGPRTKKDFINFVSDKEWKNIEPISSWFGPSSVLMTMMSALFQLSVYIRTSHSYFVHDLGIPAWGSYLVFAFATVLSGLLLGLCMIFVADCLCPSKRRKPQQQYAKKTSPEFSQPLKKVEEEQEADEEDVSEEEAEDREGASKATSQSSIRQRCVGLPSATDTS
UniProt Q8VEE1: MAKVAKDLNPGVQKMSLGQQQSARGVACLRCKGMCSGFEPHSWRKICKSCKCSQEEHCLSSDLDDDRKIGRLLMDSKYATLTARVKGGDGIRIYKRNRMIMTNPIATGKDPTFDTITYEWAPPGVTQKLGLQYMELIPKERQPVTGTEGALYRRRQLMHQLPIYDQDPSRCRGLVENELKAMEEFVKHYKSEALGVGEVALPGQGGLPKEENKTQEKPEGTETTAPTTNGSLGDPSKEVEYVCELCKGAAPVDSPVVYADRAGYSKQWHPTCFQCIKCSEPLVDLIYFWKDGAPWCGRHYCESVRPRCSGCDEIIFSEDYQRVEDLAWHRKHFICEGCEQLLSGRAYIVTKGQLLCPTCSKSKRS
UniProt Q8VCT9: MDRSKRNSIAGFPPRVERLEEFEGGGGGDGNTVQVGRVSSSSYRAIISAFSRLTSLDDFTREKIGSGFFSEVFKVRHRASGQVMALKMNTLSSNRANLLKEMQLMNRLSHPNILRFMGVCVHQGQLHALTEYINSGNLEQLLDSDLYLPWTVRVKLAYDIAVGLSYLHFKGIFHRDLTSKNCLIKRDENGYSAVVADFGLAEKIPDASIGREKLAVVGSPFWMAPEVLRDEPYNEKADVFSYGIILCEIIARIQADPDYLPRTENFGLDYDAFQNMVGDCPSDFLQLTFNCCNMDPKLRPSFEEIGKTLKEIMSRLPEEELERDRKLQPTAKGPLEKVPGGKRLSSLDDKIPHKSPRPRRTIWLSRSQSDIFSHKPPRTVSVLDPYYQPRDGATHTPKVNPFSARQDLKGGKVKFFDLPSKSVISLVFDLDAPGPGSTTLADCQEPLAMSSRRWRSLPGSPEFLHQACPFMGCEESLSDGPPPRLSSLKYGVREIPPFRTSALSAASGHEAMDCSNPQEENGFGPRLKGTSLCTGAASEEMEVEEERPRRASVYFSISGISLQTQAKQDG
UniProt Q8VCR3: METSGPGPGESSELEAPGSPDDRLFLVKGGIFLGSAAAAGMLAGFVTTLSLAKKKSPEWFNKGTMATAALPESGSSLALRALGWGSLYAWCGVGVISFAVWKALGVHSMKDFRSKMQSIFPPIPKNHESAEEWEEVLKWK
UniProt Q8VED2: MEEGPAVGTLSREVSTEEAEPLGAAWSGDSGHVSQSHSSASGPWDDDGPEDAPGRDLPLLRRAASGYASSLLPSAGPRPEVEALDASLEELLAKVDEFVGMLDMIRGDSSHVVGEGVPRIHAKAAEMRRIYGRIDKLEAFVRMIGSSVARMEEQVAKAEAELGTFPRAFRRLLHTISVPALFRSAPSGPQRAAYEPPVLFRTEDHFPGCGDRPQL

The list shows a part of the results. Most values lie at the level of the controls, where differences are scatter.

Compound in the experiment: CN[C@@H]1C[C@H]2O[C@@](C)([C@@H]1OC)n1c3ccccc3c3c4c(c5c6ccccc6n2c5c31)C(=O)NC4 [staurosporine]
Briefly: log2 fold change of tryptic peptide abundance, ligand vs vehicle (limited proteolysis) (log2 ratio); higher = more trypsin-susceptible (destabilized). The following applies: ligand concentration: 20 uM; sample: mouse liver crude lysate; replicate design: treated separately.
With “UniProt Q8VEJ9 (peptide sequence: LHLGSTPHNLTDANIHELAR, peptide start residue: 305)”, the log2 fold change amounted to 0.132. To “UniProt Q8VBT9 (peptide sequence: QCDTAGKQESIAVR, peptide start residue: 174)” belongs 0.72; to “UniProt Q8R3Y5 (peptide sequence: KILEQQQAAK, peptide start residue: 214)”, -0.561; to “UniProt Q8R4D1 (peptide sequence: GFMWLDAK, peptide start residue: 521)”, 0.185. For “UniProt Q8R2Y0 (peptide sequence: SISNSQVEVLENCGHSVVMERPR, peptide start residue: 292)”, the log2 fold change is -0.635.

For “UniProt Q8VCG4 (peptide sequence: FLFQVSR, peptide start residue: 112)”, the log2 fold change was -0.283. To “UniProt Q8VE09 (peptide sequence: KSTPSMVDR, peptide start residue: 117)” belongs -0.318; to “UniProt Q8R5K4 (peptide sequence: MGPAPAGEQHR, peptide start residue: 12)”, -0.875; to “UniProt Q8R5J9 (peptide sequence: DISKWNNR, peptide start residue: 28)”, 0.341.

For “UniProt Q8VEK6 (peptide sequence: KYNPTSHHAAADHIPEKK, peptide start residue: 148)”, the log2 fold change stood at 0.319. On to “UniProt Q8VDQ9 (peptide sequence: DYILNKR, peptide start residue: 248)”, for which the log2 fold change is -0.232.

Consider “UniProt Q8VE11 (peptide sequence: TSLCLKEPSLLPVK, peptide start residue: 562)”, for which the log2 fold change came out at 0.203. To “UniProt Q8R349 (peptide sequence: LKCYDFDVHTMK, peptide start residue: 542)” belongs 1.33; to “UniProt Q8VE70 (peptide sequence: VNLSAAQTLR, peptide start residue: 36)”, -0.0925; to “UniProt Q8R3L2 (peptide sequence: KSCTGESSENGLEDIDR, peptide start residue: 136)”, -0.311. Turning to “UniProt Q8VDM1 (peptide sequence: QALSLQLFQTEEKIER, peptide start residue: 433)”, the log2 fold change is -0.33. For “UniProt Q8VCH8 (peptide sequence: IKQQIALDR, peptide start residue: 267)”, the log2 fold change is 0.116. For “UniProt Q8VEK3 (peptide sequence: RNFILDQTNVSAAAQR, peptide start residue: 551)” the value was -0.244; for “UniProt Q8VDS8 (peptide sequence: LEPEPHTKR, peptide start residue: 169)”, -0.4; for “UniProt Q8VD63 (peptide sequence: VAENSCAAAAR, peptide start residue: 70)”, -0.217. For “UniProt Q8VD75 (peptide sequence: AINTQEVAVKEK, peptide start residue: 47)” the value was 0.368. For “UniProt Q8VBV3 (peptide sequence: HLVVPGDTITTDTGFMR, peptide start residue: 25)” the value was 0.31; for “UniProt Q8R411 (peptide sequence: SSYNHGLNR, peptide start residue: 66)”, -0.158. As for “UniProt Q8VC03 (peptide sequence: VHLFQYPCAR, peptide start residue: 819)”, the log2 fold change was 0.812. For “UniProt Q8R361 (peptide sequence: GSHGTSSSEAVPGQEELSK, peptide start residue: 390)” the value was 0.065; for “UniProt Q8VBT0 (peptide sequence: TSPEFSQPLKK, peptide start residue: 222)”, 0.153. As to “UniProt Q8VEE1 (peptide sequence: DGAPWCGR, peptide start residue: 291)”, the log2 fold change was -0.402. On to “UniProt Q8VE42 (peptide sequence: AAYSGHIDVVR, peptide start residue: 114)”, for which the log2 fold change was 0.347. To “UniProt Q8VDG5 (peptide sequence: VVLITSGGTKVPLEAR, peptide start residue: 37)” belongs -0.512. For “UniProt Q8VCT9 (peptide sequence: LTSLDDFTR, peptide start residue: 53)”, the log2 fold change is -0.204. As for “UniProt Q8VCR3 (peptide sequence: MQSIFPPIPK, peptide start residue: 116)”, the log2 fold change was found to be 0.522. For “UniProt Q8VEK0 (peptide sequence: TAALPTFR, peptide start residue: 266)” the value was -0.4; for “UniProt Q8VE47 (peptide sequence: MGIVSDYK, peptide start residue: 60)”, -0.166. On to “UniProt Q8VBZ3 (peptide sequence: VAGIFPCPTFK, peptide start residue: 448)”, for which the log2 fold change stood at 0.236. Take “UniProt Q8VED2 (peptide sequence: LLHTISVPALFR, peptide start residue: 172)”: the log2 fold change was 0.141.

For the target “UniProt Q8R4X3 (peptide sequence: DEATAAVIDLNDRPIGSR, peptide start residue: 968)”, the log2 fold change is -0.627. Consider “UniProt Q8R570 (peptide sequence: ELLLSQPGTAANIPSHVTR, peptide start residue: 100)”, for which the log2 fold change was determined as 0.198.
